Measurements as given in the supplement of paper PMC7666118.
This is one part of the list.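 How the source made its calls: active = dose-dependent thermal stabilisation significant by F-test of dose-response against flat model at 10% FDR; inactive = not significant.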

Sequences of proteins named here, by UniProt entry; tags and fusion partners are left off. A change or cut given only in a name is not applied to a line headed by its entry.
UniProt Q8IWL3: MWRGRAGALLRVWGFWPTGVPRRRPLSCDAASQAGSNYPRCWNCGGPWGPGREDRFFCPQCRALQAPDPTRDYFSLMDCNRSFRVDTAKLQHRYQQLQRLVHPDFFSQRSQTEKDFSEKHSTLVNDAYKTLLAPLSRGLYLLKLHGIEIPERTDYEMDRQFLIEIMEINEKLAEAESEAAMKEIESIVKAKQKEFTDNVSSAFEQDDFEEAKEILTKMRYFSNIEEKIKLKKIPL
UniProt Q9H0H3: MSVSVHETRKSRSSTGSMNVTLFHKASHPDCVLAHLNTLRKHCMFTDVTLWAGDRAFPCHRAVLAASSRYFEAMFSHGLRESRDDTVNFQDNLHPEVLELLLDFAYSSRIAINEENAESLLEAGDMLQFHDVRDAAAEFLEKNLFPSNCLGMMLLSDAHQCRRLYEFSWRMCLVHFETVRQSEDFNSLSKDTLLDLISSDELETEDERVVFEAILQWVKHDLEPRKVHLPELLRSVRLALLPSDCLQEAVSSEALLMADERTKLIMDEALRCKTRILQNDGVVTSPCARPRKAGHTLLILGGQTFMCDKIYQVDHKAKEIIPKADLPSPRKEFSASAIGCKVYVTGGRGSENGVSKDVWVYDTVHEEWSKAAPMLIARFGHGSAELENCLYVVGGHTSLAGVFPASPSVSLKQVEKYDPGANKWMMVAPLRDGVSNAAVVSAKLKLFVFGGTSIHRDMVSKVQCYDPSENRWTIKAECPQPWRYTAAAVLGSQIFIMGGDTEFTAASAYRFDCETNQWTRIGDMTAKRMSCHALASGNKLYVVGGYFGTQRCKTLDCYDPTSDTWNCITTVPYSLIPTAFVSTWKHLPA
UniProt Q8TBB5: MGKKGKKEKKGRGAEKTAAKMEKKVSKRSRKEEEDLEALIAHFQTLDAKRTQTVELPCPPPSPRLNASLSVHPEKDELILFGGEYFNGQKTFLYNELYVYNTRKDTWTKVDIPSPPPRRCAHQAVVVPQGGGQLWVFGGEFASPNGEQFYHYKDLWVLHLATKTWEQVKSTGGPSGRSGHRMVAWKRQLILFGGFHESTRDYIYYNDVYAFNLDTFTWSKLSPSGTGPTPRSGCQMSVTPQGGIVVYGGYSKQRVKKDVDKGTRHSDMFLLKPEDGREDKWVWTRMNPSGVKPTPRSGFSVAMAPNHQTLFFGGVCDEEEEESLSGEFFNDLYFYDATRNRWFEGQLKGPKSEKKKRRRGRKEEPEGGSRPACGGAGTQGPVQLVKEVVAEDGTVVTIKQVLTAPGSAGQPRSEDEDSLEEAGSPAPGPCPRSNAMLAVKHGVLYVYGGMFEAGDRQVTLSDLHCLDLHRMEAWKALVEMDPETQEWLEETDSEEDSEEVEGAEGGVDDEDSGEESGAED
UniProt Q53H82: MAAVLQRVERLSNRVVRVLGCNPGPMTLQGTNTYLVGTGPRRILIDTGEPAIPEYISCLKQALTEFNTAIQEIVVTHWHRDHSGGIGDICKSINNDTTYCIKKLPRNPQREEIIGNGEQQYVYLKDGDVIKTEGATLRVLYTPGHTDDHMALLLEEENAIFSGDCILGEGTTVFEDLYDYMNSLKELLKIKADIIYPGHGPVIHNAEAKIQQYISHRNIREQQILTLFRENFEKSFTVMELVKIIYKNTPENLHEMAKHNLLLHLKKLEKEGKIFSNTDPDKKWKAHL
UniProt Q9H1K1: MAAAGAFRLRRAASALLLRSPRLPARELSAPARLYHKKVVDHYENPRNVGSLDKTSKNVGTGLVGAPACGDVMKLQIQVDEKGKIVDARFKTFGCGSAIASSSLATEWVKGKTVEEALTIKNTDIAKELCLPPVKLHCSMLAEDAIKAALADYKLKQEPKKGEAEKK
UniProt P50053: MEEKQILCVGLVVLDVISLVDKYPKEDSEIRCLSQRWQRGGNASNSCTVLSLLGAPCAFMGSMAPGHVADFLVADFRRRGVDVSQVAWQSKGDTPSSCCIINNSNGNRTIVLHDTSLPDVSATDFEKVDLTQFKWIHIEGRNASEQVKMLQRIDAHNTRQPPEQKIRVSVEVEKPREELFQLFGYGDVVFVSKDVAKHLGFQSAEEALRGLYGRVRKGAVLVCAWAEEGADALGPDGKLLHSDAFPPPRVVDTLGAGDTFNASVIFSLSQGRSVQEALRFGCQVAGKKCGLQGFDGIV
UniProt Q9Y2F5: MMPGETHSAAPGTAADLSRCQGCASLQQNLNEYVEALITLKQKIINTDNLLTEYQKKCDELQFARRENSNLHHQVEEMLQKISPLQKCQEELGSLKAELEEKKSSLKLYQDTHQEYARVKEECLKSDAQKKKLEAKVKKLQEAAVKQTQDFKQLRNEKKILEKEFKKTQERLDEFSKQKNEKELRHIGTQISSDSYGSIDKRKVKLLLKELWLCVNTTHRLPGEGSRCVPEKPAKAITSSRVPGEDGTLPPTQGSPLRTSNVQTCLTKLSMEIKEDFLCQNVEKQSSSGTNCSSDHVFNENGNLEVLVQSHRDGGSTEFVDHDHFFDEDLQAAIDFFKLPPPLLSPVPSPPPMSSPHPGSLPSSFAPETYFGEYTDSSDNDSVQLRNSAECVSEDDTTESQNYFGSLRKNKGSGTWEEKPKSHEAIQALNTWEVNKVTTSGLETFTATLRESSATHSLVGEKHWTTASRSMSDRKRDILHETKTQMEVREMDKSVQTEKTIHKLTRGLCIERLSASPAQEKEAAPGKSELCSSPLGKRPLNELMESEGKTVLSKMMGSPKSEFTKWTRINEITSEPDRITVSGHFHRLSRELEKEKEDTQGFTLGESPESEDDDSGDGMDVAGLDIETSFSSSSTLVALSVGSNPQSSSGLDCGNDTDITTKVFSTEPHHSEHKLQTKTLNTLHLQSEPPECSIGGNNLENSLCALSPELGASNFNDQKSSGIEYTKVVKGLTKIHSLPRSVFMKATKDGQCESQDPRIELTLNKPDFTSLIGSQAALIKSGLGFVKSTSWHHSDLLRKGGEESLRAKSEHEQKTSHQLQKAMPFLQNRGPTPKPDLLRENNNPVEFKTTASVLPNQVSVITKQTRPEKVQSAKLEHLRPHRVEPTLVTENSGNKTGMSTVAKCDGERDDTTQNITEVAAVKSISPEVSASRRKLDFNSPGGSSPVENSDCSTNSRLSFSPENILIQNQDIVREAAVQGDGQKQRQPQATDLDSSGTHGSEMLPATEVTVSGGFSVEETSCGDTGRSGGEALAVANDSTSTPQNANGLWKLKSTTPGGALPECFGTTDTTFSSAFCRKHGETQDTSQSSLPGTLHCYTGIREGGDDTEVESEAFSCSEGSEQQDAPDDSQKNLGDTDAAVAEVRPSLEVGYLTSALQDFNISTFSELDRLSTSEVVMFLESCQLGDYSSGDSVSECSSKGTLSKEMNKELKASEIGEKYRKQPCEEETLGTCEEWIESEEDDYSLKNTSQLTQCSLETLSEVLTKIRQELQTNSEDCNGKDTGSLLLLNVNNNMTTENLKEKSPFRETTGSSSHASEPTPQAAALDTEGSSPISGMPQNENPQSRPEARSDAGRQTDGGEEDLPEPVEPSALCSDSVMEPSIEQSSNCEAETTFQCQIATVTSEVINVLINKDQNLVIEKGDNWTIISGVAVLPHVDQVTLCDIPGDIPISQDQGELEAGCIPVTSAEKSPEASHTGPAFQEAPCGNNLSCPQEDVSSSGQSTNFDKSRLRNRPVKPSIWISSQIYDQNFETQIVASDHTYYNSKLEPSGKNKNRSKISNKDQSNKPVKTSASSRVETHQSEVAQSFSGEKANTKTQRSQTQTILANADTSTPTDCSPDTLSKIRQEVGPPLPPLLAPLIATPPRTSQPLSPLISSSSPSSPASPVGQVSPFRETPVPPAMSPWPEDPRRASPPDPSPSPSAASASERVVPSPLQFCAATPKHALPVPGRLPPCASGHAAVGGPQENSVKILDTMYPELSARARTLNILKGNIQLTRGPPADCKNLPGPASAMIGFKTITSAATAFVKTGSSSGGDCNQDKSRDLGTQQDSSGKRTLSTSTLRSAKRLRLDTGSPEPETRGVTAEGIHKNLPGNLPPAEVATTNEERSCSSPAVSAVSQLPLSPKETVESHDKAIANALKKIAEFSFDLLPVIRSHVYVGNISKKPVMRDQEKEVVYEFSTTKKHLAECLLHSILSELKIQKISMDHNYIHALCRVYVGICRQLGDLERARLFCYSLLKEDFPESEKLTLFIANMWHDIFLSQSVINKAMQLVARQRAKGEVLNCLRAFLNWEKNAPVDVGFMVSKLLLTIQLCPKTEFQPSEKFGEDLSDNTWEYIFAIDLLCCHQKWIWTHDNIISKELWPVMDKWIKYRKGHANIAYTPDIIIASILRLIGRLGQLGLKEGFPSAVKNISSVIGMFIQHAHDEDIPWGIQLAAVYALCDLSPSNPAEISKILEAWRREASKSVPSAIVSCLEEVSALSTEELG
UniProt P50748: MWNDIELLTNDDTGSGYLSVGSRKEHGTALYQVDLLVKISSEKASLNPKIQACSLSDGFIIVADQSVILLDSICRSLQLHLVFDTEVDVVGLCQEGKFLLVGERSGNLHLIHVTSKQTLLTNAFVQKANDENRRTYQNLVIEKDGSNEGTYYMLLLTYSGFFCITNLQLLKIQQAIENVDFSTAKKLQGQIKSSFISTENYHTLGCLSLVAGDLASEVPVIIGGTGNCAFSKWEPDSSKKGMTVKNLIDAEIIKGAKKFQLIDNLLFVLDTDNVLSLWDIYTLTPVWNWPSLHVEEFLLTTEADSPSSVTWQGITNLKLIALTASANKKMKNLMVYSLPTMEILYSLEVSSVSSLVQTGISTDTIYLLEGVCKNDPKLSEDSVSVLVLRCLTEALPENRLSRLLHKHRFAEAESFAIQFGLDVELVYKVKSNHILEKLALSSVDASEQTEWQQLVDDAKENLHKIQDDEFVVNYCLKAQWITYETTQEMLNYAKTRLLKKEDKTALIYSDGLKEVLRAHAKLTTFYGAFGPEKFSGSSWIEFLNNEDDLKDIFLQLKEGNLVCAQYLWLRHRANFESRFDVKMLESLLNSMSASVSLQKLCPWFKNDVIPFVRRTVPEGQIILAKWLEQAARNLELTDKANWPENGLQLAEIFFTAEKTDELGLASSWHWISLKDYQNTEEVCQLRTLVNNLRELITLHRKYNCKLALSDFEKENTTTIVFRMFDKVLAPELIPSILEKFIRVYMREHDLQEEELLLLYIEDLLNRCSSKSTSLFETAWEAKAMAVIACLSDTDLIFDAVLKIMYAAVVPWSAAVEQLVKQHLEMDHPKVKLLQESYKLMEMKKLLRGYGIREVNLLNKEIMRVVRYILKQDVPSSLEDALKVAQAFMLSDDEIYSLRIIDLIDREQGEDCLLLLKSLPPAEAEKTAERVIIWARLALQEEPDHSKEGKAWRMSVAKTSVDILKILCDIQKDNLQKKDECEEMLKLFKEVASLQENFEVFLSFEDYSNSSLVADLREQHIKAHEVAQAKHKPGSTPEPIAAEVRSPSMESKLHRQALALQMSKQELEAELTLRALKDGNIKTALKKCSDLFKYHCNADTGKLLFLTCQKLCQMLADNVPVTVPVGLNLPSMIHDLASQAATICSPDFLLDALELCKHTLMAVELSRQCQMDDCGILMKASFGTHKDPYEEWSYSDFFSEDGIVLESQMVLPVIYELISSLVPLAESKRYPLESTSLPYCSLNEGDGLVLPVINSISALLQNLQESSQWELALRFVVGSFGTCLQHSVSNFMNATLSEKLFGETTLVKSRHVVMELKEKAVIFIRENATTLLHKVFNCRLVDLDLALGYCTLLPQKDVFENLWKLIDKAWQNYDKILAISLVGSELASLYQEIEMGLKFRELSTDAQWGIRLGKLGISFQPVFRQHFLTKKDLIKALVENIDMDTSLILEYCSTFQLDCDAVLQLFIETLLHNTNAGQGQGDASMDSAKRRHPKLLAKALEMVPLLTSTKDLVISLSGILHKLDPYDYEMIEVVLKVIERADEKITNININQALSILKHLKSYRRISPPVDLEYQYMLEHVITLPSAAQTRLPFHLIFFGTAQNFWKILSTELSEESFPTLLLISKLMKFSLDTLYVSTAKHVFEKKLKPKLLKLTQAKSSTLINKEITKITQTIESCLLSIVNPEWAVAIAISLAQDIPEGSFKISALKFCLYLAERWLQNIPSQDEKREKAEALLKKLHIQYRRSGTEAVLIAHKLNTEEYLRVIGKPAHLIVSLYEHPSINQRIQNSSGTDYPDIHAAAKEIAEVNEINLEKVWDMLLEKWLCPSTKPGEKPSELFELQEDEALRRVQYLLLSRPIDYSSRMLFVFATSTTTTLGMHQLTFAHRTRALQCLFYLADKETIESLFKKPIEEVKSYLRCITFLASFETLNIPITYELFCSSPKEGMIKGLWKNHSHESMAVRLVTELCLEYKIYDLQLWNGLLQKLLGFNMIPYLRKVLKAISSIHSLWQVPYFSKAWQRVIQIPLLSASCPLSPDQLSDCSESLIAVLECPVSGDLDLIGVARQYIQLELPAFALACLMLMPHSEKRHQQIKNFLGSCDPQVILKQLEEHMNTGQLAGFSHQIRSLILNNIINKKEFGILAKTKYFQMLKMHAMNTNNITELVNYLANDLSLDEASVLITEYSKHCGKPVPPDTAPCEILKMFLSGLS

Compound: Nc1nc2c(ncn2[C@@H]2O[C@H](COP(=O)(O)OP(=O)(O)OP(=O)(O)O)[C@@H](O)[C@H]2O)c(=O)[nH]1
Assay: dose-dependent thermal stabilisation call (2D-TPP, DLPTP, 10% FDR) (binary (1 = stabilised)); higher = stabilised by the compound
Details: system: Jurkat gel-filtered lysate; concentration range 1-500 µM

| Target | dose-dependent thermal stabilisation call |
| --- | --- |
| LARS2 (UniProt Q15031) | active: 1 |
| KPTN (UniProt Q9Y664) | inactive: 0 |
| ITPKB (UniProt P27987) | inactive: 0 |
| LAMTOR5 (UniProt O43504) | inactive: 0 |
| HSCB (UniProt Q8IWL3) | inactive: 0 |
| KIF4A (UniProt O95239) | active: 1 |
| KLHL25 (UniProt Q9H0H3) | active: 1 |
| KBTBD7 (UniProt Q8WVZ9) | inactive: 0 |
| KLHDC4 (UniProt Q8TBB5) | inactive: 0 |
| HSDL2 (UniProt Q6YN16) | inactive: 0 |
| LACTB2 (UniProt Q53H82) | inactive: 0 |
| LIMS1 (UniProt P48059) | inactive: 0 |
| LIN54 (UniProt Q6MZP7) | inactive: 0 |
| ISCU (UniProt Q9H1K1) | inactive: 0 |
| LCP1 (UniProt P13796) | inactive: 0 |
| KDM1B (UniProt Q8NB78) | inactive: 0 |
| IPO9 (UniProt Q96P70) | inactive: 0 |
| KHK (UniProt P50053) | inactive: 0 |
| JPT1 (UniProt Q9UK76) | inactive: 0 |
| ICE1 (UniProt Q9Y2F5) | inactive: 0 |
| KLHL36 (UniProt Q8N4N3) | active: 1 |
| HSPA4 (UniProt P34932) | inactive: 0 |
| KNTC1 (UniProt P50748) | active: 1 |
| LARP1 (UniProt Q6PKG0) | inactive: 0 |
| LANCL1 (UniProt O43813) | inactive: 0 |
| INTS13 (UniProt Q9NVM9) | active: 1 |
| LMO4 (UniProt P61968) | inactive: 0 |

2 entries from above, set out differently.
Target	dose-dependent thermal stabilisation call
INTS13 (UniProt Q9NVM9)	active: 1
LMO4 (UniProt P61968)	inactive: 0
